Assay results published in the supplement of paper PMC12067093, “Discovery and optimisation of a covalent ligand for TRIM25 and its application to targeted protein ubiquitination” (Chemical Science, 2025).
The list shows a part of the results.

Amino acid sequences for entries named in this document (tags omitted). A change or cut given only in a name is not applied to a line headed by its entry.
UniProt Q14202: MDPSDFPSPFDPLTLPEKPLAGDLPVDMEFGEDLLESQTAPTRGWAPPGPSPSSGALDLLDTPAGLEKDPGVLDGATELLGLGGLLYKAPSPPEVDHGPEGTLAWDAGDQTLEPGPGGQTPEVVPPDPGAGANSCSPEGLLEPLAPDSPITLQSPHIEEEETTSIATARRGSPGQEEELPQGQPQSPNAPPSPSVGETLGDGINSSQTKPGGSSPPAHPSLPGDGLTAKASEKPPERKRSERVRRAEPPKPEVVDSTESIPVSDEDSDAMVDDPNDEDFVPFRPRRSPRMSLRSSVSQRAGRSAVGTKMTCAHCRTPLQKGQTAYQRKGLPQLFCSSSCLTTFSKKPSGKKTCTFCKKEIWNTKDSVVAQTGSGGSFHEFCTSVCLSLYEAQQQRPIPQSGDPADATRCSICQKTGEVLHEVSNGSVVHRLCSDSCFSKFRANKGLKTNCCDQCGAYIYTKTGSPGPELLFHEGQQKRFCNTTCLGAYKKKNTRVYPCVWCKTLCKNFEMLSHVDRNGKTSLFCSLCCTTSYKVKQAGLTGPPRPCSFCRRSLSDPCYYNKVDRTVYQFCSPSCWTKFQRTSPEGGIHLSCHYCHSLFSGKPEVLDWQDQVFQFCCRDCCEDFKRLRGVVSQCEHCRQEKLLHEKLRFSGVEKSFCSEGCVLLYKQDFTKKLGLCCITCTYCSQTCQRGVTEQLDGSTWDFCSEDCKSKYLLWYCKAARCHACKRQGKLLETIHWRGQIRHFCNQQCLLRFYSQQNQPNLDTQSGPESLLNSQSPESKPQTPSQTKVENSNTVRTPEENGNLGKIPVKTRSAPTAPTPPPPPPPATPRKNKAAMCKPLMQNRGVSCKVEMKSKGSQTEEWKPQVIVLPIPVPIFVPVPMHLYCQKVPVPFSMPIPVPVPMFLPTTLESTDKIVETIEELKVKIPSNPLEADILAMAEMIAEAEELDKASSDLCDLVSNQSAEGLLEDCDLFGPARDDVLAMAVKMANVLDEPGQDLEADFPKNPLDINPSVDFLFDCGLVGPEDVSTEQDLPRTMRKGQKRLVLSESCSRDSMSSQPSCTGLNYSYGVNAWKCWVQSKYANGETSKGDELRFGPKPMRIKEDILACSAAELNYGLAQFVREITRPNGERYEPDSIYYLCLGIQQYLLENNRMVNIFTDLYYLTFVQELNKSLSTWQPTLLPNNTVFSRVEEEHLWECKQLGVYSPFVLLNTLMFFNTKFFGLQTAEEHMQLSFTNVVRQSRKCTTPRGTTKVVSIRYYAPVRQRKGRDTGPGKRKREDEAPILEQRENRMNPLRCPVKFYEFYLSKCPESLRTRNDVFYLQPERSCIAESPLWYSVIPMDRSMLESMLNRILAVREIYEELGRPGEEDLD
UniProt Q9H2Y7: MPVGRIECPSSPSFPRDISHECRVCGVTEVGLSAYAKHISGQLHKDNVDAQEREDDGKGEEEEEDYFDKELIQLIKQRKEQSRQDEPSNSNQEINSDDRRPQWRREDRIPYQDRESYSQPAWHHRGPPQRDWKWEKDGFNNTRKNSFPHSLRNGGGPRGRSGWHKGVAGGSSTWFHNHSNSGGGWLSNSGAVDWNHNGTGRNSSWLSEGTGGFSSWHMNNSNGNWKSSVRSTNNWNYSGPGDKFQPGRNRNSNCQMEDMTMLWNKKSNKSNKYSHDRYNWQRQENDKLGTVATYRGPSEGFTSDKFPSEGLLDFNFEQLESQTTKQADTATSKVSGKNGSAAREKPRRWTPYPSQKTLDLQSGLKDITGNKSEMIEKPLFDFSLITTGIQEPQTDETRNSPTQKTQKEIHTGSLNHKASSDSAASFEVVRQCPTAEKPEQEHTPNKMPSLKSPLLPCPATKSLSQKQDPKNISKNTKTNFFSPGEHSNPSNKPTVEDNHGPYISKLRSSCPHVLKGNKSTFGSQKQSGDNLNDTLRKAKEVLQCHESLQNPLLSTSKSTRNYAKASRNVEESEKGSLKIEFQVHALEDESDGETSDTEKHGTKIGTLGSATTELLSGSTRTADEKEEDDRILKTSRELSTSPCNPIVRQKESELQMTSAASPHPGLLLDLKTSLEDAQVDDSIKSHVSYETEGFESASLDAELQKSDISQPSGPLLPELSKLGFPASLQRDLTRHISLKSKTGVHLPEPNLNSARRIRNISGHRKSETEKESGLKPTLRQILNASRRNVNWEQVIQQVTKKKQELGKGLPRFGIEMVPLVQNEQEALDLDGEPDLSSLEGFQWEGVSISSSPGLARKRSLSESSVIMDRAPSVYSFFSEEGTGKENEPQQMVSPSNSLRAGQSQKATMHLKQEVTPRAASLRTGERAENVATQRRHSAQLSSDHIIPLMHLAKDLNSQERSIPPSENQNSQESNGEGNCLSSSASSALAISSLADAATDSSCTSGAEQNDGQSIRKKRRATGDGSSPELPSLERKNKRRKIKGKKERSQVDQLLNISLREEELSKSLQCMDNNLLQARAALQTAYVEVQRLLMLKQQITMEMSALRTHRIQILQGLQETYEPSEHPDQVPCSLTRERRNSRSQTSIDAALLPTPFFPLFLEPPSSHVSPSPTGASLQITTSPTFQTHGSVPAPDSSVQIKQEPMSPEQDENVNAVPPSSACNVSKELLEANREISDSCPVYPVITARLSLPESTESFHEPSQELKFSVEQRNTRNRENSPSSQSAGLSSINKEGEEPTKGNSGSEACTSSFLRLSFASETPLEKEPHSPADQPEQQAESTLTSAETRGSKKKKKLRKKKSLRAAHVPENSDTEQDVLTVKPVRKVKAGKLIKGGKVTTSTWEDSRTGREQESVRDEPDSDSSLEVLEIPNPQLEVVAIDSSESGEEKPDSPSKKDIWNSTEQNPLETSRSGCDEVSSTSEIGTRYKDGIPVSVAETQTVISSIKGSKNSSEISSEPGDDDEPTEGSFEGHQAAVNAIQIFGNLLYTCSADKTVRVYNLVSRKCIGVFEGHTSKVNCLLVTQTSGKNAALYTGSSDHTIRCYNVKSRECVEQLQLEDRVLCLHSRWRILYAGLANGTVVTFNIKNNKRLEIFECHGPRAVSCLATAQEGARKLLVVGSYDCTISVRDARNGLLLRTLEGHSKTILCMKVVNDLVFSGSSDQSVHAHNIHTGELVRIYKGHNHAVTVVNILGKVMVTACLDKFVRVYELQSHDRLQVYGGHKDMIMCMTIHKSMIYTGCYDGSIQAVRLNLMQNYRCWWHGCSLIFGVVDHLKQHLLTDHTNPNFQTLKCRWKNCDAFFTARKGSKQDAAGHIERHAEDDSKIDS
UniProt Q7Z3T8: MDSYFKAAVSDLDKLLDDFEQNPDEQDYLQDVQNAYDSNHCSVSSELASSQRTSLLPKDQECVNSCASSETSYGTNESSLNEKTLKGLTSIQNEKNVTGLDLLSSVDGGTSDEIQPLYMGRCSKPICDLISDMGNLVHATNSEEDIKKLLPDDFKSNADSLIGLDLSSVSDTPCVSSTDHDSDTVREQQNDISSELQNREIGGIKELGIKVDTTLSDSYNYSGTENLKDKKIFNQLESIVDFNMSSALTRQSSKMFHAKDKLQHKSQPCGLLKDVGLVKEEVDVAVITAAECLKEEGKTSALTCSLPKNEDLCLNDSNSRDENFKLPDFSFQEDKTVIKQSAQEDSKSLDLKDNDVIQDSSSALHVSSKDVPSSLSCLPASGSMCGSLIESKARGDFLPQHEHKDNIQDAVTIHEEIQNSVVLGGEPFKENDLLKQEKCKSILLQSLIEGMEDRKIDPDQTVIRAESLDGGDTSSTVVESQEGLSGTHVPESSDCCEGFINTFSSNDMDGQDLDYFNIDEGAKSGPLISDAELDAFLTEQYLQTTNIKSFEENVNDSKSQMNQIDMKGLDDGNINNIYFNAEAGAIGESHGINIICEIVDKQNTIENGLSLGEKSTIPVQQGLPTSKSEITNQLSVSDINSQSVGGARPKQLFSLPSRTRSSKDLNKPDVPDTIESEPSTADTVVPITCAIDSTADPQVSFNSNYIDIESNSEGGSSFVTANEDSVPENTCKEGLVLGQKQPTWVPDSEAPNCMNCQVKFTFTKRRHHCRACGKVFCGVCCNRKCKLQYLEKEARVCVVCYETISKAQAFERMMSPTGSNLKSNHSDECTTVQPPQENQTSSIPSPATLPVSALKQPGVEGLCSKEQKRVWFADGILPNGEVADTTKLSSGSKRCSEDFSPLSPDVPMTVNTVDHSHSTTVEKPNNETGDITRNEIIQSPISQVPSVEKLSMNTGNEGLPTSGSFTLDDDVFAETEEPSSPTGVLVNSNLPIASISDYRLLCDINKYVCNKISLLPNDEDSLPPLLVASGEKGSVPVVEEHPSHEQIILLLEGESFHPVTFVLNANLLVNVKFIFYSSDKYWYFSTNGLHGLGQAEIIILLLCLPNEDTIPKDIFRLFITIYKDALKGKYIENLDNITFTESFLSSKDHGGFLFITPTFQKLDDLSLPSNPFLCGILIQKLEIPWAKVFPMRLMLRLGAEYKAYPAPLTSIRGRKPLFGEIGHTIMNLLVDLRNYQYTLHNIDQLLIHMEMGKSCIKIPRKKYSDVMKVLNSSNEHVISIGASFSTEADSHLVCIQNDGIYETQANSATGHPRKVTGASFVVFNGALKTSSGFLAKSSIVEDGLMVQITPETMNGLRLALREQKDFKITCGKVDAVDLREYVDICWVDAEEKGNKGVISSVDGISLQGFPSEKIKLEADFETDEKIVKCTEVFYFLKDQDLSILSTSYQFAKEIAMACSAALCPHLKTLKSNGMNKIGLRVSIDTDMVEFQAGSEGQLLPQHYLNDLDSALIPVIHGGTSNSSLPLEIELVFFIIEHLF
UniProt Q15326: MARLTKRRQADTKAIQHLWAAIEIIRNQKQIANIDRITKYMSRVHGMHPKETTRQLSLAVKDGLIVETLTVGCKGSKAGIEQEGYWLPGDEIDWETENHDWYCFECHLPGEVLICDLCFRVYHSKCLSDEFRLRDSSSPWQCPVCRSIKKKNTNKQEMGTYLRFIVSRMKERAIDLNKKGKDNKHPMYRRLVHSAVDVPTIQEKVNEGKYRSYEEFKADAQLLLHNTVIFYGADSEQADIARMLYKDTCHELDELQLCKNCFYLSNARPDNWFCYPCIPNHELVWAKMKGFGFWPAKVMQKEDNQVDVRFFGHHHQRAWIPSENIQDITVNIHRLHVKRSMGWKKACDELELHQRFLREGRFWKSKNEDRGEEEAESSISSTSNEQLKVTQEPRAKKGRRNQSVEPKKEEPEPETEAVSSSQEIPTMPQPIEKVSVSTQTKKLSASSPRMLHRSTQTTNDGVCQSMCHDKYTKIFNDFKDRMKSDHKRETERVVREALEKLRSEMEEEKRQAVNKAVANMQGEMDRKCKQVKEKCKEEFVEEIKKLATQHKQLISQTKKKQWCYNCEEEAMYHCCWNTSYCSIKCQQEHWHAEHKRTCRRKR
UniProt Q9ULJ6: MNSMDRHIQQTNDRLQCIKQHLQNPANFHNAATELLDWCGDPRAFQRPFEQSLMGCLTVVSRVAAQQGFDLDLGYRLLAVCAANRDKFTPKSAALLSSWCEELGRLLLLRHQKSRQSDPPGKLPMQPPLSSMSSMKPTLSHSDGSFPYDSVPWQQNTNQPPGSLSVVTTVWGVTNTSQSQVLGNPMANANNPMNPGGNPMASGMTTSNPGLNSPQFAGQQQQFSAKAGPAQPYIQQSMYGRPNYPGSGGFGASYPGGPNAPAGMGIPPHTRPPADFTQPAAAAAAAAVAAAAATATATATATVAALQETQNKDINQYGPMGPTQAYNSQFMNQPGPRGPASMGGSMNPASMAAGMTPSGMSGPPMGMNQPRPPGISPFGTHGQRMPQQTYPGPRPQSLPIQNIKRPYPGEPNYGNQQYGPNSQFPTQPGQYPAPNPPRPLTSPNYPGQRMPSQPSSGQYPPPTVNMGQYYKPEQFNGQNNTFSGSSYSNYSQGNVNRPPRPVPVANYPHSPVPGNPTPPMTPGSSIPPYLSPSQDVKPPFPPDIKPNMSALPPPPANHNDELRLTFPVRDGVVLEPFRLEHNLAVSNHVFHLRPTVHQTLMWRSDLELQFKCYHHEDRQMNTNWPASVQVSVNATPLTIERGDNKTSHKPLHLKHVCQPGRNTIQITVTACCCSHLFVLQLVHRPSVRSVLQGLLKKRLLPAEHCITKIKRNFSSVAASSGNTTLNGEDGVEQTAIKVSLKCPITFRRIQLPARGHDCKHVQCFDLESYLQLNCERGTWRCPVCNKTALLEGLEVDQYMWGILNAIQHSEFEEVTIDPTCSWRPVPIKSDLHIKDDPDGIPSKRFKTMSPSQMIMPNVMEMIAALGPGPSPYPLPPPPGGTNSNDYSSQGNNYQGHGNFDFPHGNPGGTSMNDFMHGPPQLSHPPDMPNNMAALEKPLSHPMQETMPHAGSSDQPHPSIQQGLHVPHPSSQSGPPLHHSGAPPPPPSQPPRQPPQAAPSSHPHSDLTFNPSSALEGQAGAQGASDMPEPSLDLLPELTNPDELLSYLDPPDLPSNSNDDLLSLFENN

Compound: CC1Cc2ccccc2N1C(=O)C1CCCN(C1)C(=O)CCl (mixture of isomers) [TRIM25 ligand 11 (diastereomer mixture)]
Assay: probe-labelled cysteine peptide fold change vs DMSO (competition) (log2 fold change); higher = less target engagement (more negative = stronger competition)
Conditions: 50 µM; THP-1; incubation time: 4 h
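Further: competitive chemoproteomic profiling in live THP-1 cells with an iodoacetamide desthiobiotin (IA-DTB) probe, comparing probe-labelled peptide intensities in compound-treated cells against DMSO-treated controls.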

Target	probe-labelled cysteine peptide fold change
ZNF512B_Q96KM6_6_TDPFCVGGR (UniProt Q96KM6)	0.313
ZMYM4_Q5VZL5_948_ALLCKPITQTK (UniProt Q5VZL5)	-0.293
ZMYM3_Q14202_311+314_MTCAHCR (UniProt Q14202)	-0.187
ZMYM3_Q14202_484_FCNTTCLGAYK (UniProt Q14202)	-0.000804
ZFYVE1_Q9HBF4_217_TSPTQESCTVGVWAAYDPVHK (UniProt Q9HBF4)	0.334
ZNF189_O75820_610_TQETHECDACGEAFNCR (UniProt O75820)	-0.152
ZNF280D_Q6N043_827_NIVSCDSNIGADKVEK (UniProt Q6N043)	-0.255
ZNF687_Q8N1G0_860_CPSCPLLFAQK (UniProt Q8N1G0)	-0.0593
ZNF592_Q92610_592_IHVPASGYCCLECGDAFALEK (UniProt Q92610)	0.078
ZNF106_Q9H2Y7_1653_RLEIFECHGPR (UniProt Q9H2Y7)	0.0992
ZNF330_Q9Y3S2_120+122_CLSTHACACPLTDAECVECER (UniProt Q9Y3S2)	-0.17
ZFAND6_Q6FIF0_181_YSDVHNCSYNYK (UniProt Q6FIF0)	-0.139
ZNF638_Q14966_1947_AMTNHCK (UniProt Q14966)	-0.253
ZFYVE16_Q7Z3T8_292_EEVDVAVITAAECLK (UniProt Q7Z3T8)	-0.17
ZMYND11_Q15326_73_DGLIVETLTVGCK (UniProt Q15326)	0.0511
ZMIZ1_Q9ULJ6_763_HVQCFDLESYLQLNCER (UniProt Q9ULJ6)	0.043

For convenience, some entries already given.
Target	probe-labelled cysteine peptide fold change
ZFYVE16_Q7Z3T8_292_EEVDVAVITAAECLK (UniProt Q7Z3T8)	-0.17
ZMYND11_Q15326_73_DGLIVETLTVGCK (UniProt Q15326)	0.0511
ZMIZ1_Q9ULJ6_763_HVQCFDLESYLQLNCER (UniProt Q9ULJ6)	0.043
